PubChem BioAssay AID1224831 – NIAID – 2016
Screen: 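Retesting screen hits on the TLR4-driven TNF response with six separate siRNAs each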 (follow-up of hits). Cell system: human THP-1 B5 monocytic leukaemia cells carrying a TNF promoter luciferase reporter, made macrophage-like with PMA. Reagents: single siRNA against human genes, 50 nM. Duration: about 68 h of knock-down, then 4 h LPS. Treatment: LPS (Salmonella minnesota, TLR-grade) at 10 ng/ml for 4 h; PMA 5 ng/ml present during knock-down. Read-out: 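Firefly to renilla luciferase ratio of a TNF promoter reporter after 4 h LPS, scaled to plate median, turned into robust z-score, averaged over replicates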. Reading the numbers: TNF reporter z-score: higher = stronger LPS-induced TNF reporter signal; z-score, median over gene's siRNAs: higher = stronger TNF reporter signal across the gene's siRNAs. Call rule: 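Two-sided call: reduced or raised TNF reporter signal counts as active once mean z reaches about -1 or below, or about 1.5 or above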. Calls: active = changed TNF reporter (either direction); inactive = little change.
Here is one part, drawn at random, of about 3,500 deposited reagents. Of all reagents, 731 (21%) are marked active. 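Active means either lowered or raised reporter signal; the gene-median score did not drive the per-siRNA calls.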 The numbers tell different reagents against one gene apart.

target gene | reagent | TNF reporter z-score, replicate mean | z-score, median over gene's siRNAs | outcome
DTNB (dystrobrevin beta) | 1 | 0.91 | 0.55 | inactive
DTNB (dystrobrevin beta) | 2 | 0.56 | 0.55 | inactive
DTNB (dystrobrevin beta) | 3 | 0.54 | 0.55 | inactive
DTNB (dystrobrevin beta) | 4 | -0.51 | 0.55 | inactive
DTNB (dystrobrevin beta) | 5 | 0.06 | 0.55 | inactive
DTNB (dystrobrevin beta) | 6 | 1.33 | 0.55 | inactive
MRM3 (mitochondrial rRNA methyltransferase 3) | 1 | 0.21 | 0.195 | inactive
MRM3 (mitochondrial rRNA methyltransferase 3) | 2 | -1.1 | 0.195 | active
MRM3 (mitochondrial rRNA methyltransferase 3) | 3 | 0.77 | 0.195 | inactive
MRM3 (mitochondrial rRNA methyltransferase 3) | 4 | -0.6 | 0.195 | inactive
MRM3 (mitochondrial rRNA methyltransferase 3) | 5 | 0.18 | 0.195 | inactive
MRM3 (mitochondrial rRNA methyltransferase 3) | 6 | 1.44 | 0.195 | inactive
CEP20 (centrosomal protein 20) | 1 | -0.79 | -0.23 | inactive
CEP20 (centrosomal protein 20) | 2 | 0.05 | -0.23 | inactive
CEP20 (centrosomal protein 20) | 3 | 1.14 | -0.23 | inactive
CEP20 (centrosomal protein 20) | 4 | -0.19 | -0.23 | inactive
CEP20 (centrosomal protein 20) | 5 | -0.27 | -0.23 | inactive
CEP20 (centrosomal protein 20) | 6 | -0.64 | -0.23 | inactive
TGOLN2 (trans-golgi network protein 2) | 1 | -0.11 | 0.135 | inactive
TGOLN2 (trans-golgi network protein 2) | 2 | 3.26 | 0.135 | active
TGOLN2 (trans-golgi network protein 2) | 3 | -0.93 | 0.135 | inactive
TGOLN2 (trans-golgi network protein 2) | 4 | 0.27 | 0.135 | inactive
TGOLN2 (trans-golgi network protein 2) | 5 | 2.49 | 0.135 | active
TGOLN2 (trans-golgi network protein 2) | 6 | 0 | 0.135 | inactive
SNRNP70 (small nuclear ribonucleoprotein U1 subunit 70) | 1 | -0.62 | 0.345 | inactive
SNRNP70 (small nuclear ribonucleoprotein U1 subunit 70) | 2 | 0.18 | 0.345 | inactive
SNRNP70 (small nuclear ribonucleoprotein U1 subunit 70) | 3 | 0.51 | 0.345 | inactive
SNRNP70 (small nuclear ribonucleoprotein U1 subunit 70) | 4 | 0.97 | 0.345 | inactive
SNRNP70 (small nuclear ribonucleoprotein U1 subunit 70) | 5 | -0.54 | 0.345 | inactive
SNRNP70 (small nuclear ribonucleoprotein U1 subunit 70) | 6 | 0.58 | 0.345 | inactive
HSP90B1 (heat shock protein 90 beta family member 1) | 1 | -1.57 | -1.38 | active
HSP90B1 (heat shock protein 90 beta family member 1) | 2 | -1.89 | -1.38 | active
HSP90B1 (heat shock protein 90 beta family member 1) | 3 | -0.68 | -1.38 | inactive
HSP90B1 (heat shock protein 90 beta family member 1) | 4 | -1.19 | -1.38 | active
HSP90B1 (heat shock protein 90 beta family member 1) | 5 | -1.97 | -1.38 | active
HSP90B1 (heat shock protein 90 beta family member 1) | 6 | -0.52 | -1.38 | inactive

Laid out differently: 6 of the entries above
CEP20 (centrosomal protein 20) #6
- TNF reporter z-score, replicate mean: -0.64
- z-score, median over gene's siRNAs: -0.23
- outcome: inactive

TGOLN2 (trans-golgi network protein 2) #1
- TNF reporter z-score, replicate mean: -0.11
- z-score, median over gene's siRNAs: 0.135
- outcome: inactive

TGOLN2 (trans-golgi network protein 2) #2
- TNF reporter z-score, replicate mean: 3.26
- z-score, median over gene's siRNAs: 0.135
- outcome: active

TGOLN2 (trans-golgi network protein 2) #3
- TNF reporter z-score, replicate mean: -0.93
- z-score, median over gene's siRNAs: 0.135
- outcome: inactive

TGOLN2 (trans-golgi network protein 2) #4
- TNF reporter z-score, replicate mean: 0.27
- z-score, median over gene's siRNAs: 0.135
- outcome: inactive

TGOLN2 (trans-golgi network protein 2) #5
- TNF reporter z-score, replicate mean: 2.49
- z-score, median over gene's siRNAs: 0.135
- outcome: active

Next entries follow.
target gene | reagent | TNF reporter z-score, replicate mean | z-score, median over gene's siRNAs | outcome
TGM3 (transglutaminase 3) | 1 | 0.99 | 0.715 | inactive
TGM3 (transglutaminase 3) | 2 | 1.37 | 0.715 | inactive
TGM3 (transglutaminase 3) | 3 | 0.43 | 0.715 | inactive
TGM3 (transglutaminase 3) | 4 | 0.44 | 0.715 | inactive
TGM3 (transglutaminase 3) | 5 | 1.98 | 0.715 | active
TGM3 (transglutaminase 3) | 6 | 0.26 | 0.715 | inactive
PRR15 (proline rich 15) | 1 | -0.56 | -0.35 | inactive
PRR15 (proline rich 15) | 2 | 0.19 | -0.35 | inactive
PRR15 (proline rich 15) | 3 | 0.49 | -0.35 | inactive
PRR15 (proline rich 15) | 4 | -0.59 | -0.35 | inactive
PRR15 (proline rich 15) | 5 | -0.24 | -0.35 | inactive
PRR15 (proline rich 15) | 6 | -0.46 | -0.35 | inactive
ULBP1 (UL16 binding protein 1) | 1 | -0.07 | 0.09 | inactive
ULBP1 (UL16 binding protein 1) | 2 | -0.69 | 0.09 | inactive
ULBP1 (UL16 binding protein 1) | 3 | 0.59 | 0.09 | inactive
ULBP1 (UL16 binding protein 1) | 4 | 0.25 | 0.09 | inactive
ULBP1 (UL16 binding protein 1) | 5 | -0.33 | 0.09 | inactive
ULBP1 (UL16 binding protein 1) | 6 | 1.11 | 0.09 | inactive
KRAS (KRas proto-oncogene, GTPase) | 1 | 0.77 | 0.755 | inactive
KRAS (KRas proto-oncogene, GTPase) | 2 | 4.25 | 0.755 | active
KRAS (KRas proto-oncogene, GTPase) | 3 | 0.3 | 0.755 | inactive
KRAS (KRas proto-oncogene, GTPase) | 4 | 0.74 | 0.755 | inactive
KRAS (KRas proto-oncogene, GTPase) | 5 | -0.63 | 0.755 | inactive
KRAS (KRas proto-oncogene, GTPase) | 6 | 1.38 | 0.755 | inactive
SRD5A2 (steroid 5 alpha-reductase 2) | 1 | 0.1 | 0.1 | inactive
SRD5A2 (steroid 5 alpha-reductase 2) | 2 | -0.04 | 0.1 | inactive
SRD5A2 (steroid 5 alpha-reductase 2) | 3 | 0.1 | 0.1 | inactive
SRD5A2 (steroid 5 alpha-reductase 2) | 4 | 0.63 | 0.1 | inactive
SRD5A2 (steroid 5 alpha-reductase 2) | 5 | 0.24 | 0.1 | inactive
SRD5A2 (steroid 5 alpha-reductase 2) | 6 | -0.77 | 0.1 | inactive
PPP2R5E (protein phosphatase 2 regulatory subunit B'epsilon) | 1 | 0.62 | 0.41 | inactive
PPP2R5E (protein phosphatase 2 regulatory subunit B'epsilon) | 2 | -0.79 | 0.41 | inactive
PPP2R5E (protein phosphatase 2 regulatory subunit B'epsilon) | 3 | -0.22 | 0.41 | inactive
PPP2R5E (protein phosphatase 2 regulatory subunit B'epsilon) | 4 | 0.2 | 0.41 | inactive
PPP2R5E (protein phosphatase 2 regulatory subunit B'epsilon) | 5 | 1.4 | 0.41 | inactive
PPP2R5E (protein phosphatase 2 regulatory subunit B'epsilon) | 6 | 1.77 | 0.41 | active
SACK1F (scaffolding CK1 anchoring protein F) | 1 | -0.61 | 0.095 | inactive
SACK1F (scaffolding CK1 anchoring protein F) | 2 | 1.86 | 0.095 | active
SACK1F (scaffolding CK1 anchoring protein F) | 3 | -0.44 | 0.095 | inactive
SACK1F (scaffolding CK1 anchoring protein F) | 4 | 0.24 | 0.095 | inactive
SACK1F (scaffolding CK1 anchoring protein F) | 5 | 3.29 | 0.095 | active
SACK1F (scaffolding CK1 anchoring protein F) | 6 | -0.05 | 0.095 | inactive
CDK8 (cyclin dependent kinase 8) | 1 | 0.94 | 0.805 | inactive
CDK8 (cyclin dependent kinase 8) | 2 | -1.34 | 0.805 | active
CDK8 (cyclin dependent kinase 8) | 3 | 0.98 | 0.805 | inactive
CDK8 (cyclin dependent kinase 8) | 4 | 0.05 | 0.805 | inactive
CDK8 (cyclin dependent kinase 8) | 5 | 0.67 | 0.805 | inactive
CDK8 (cyclin dependent kinase 8) | 6 | 1.68 | 0.805 | active
